Test results published in patent US10829718B2, “Detergent composition comprising a carbinol functional trisiloxane” (Dow Silicones Corporation, priority 2016, dated 2020).
Some results were stated once for a whole list of compounds, not compound by compound. For at least one compound, name, drawing or mass did not settle the structure.

Type: physicochemical
Conditions: 0.5 wt % of the material in distilled water at 20° C., mixed one hour
Excerpt: The directive essentially states that if a material is classified as a surfactant in must pass certain biodegradation protocols. A surfactant was generally defined as a material capable of: 1) reducing the surface tension of water to ≤45 dynes/cm (or ≤45 mN/m) at a concentration of 0.5 wt % of the material in water; 2) forming spreading or adsorption monolayers at an air/water interface; 3) forming emulsions, microemulsions and/or micelles; and 4) adsorption at a water/solid interface. Surface tension of an aqueous solution, fluid, or mixture can readily be determined by various methods understood in the art. Generally, for stable solutions or mixtures, an equilibrium method such as the Wilhelmy plate method or Du Noüy ring method can be utilized. Alternately, for more dynamic systems, a pendant drop method can be utilized. This technique results in a fresh surface for each measurement. […] If the material is soluble in water, as indicated, for example, by the formation of a clear or slightly hazy mixture, then surface tension (σ) is determined. […] If an emulsion is present (e.g. droplets are present) and the emulsion in stable, then σ is determined. […] The (clear) main phase (or supernatant) of the emulsion is further studied and the a is determined. […]

C[Si](C)(C)O[Si](C)(CCCOCCO)O[Si](C)(C)C [Example 1, BisH-2-allyloxyethanol]
classification as surfactant / non-surfactant according to the protocol/flow diagram: non-surfactants
